Source: article PMC3576372
No constants are given. Whether binding was seen depends on the method and setting. Binding seen in cells or lysates may run through a third protein. Some results given as binding are weak or reduced against the parent protein; the word gives no strength.

The chains behind the UniProt entries cited, without tags or fusion partners. Where a name states a change or a piece, a line headed by the entry shows the natural chain unless it says otherwise.
UniProt P56696: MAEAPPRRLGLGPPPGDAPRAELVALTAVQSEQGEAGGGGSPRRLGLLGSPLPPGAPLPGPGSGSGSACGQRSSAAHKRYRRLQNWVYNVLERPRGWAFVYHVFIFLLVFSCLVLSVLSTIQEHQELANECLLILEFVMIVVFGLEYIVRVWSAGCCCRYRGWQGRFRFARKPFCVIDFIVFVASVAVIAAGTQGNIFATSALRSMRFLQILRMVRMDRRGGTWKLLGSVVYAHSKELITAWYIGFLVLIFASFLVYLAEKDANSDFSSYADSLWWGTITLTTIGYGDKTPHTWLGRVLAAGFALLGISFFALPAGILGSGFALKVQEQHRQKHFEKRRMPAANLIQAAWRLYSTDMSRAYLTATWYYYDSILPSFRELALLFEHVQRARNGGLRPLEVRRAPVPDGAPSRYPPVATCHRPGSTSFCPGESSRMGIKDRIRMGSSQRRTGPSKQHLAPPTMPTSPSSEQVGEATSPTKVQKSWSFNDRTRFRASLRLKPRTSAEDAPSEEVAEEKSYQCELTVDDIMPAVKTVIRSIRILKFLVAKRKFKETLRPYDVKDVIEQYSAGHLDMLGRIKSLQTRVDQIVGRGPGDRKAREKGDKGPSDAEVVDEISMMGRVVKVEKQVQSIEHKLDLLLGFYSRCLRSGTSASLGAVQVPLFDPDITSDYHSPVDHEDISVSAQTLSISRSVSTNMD
UniProt P11142: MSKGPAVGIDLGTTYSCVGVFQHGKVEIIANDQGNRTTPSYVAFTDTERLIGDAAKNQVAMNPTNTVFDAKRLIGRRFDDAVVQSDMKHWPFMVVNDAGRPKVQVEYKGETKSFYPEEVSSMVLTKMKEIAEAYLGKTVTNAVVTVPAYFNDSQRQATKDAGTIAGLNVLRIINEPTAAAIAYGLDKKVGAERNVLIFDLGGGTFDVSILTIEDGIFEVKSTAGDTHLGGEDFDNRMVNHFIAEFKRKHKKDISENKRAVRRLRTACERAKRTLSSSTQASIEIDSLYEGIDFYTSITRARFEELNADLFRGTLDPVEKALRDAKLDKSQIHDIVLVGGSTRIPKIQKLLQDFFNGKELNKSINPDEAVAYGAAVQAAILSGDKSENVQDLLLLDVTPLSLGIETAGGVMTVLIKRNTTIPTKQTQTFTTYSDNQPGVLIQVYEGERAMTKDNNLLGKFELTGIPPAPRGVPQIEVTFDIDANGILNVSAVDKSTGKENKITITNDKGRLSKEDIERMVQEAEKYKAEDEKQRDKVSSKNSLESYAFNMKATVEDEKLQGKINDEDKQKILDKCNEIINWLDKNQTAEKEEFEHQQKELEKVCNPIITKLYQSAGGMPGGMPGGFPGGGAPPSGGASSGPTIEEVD
UniProt P08238: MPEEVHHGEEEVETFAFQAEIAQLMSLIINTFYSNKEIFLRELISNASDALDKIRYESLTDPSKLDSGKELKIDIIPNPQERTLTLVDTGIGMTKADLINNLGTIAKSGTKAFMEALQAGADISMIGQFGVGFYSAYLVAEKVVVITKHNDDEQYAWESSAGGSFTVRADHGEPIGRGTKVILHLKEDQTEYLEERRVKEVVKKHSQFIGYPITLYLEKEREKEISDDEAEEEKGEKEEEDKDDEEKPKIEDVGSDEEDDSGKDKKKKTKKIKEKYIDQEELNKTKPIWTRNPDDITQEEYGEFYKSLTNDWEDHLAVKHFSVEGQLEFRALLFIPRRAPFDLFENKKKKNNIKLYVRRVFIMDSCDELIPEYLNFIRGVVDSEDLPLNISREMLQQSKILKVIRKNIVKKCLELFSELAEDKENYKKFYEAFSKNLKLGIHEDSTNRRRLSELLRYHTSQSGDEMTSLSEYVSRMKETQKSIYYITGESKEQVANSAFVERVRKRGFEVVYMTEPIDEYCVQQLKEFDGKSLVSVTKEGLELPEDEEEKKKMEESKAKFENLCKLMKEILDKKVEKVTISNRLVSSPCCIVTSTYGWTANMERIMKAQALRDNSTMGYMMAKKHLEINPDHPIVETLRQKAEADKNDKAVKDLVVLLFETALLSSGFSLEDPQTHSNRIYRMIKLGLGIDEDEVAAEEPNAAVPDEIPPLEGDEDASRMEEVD

Tests used:
Assay in all cases: co-IP; HEK293T cells transfected with HA-KCNQ4 or vector, 24 hrs; NP40 lysis buffer; lysate with anti-HA or anti-chaperone antibody at 4°C for 16 hrs, Dynabeads Protein G, Western blot; reciprocal
[1] = target: HA-KCNQ4 (voltage-gated potassium channel KCNQ4 with a modified HA epitope in the first extracellular loop) (human) (UniProt P56696)
[2] = target: HSC70 (heat-shock 70kD cognate protein, constitutive isoform of HSP70) (human (endogenous in HEK293T)) (UniProt P11142)
[3] = target: HSP90β (constitutive isoform of HSP90) (human (endogenous in HEK293T)) (UniProt P08238)
[4] = target: HSP90α (inducible isoform of HSP90) (human (endogenous in HEK293T)) (UniProt P07900)
[5] = target: DjA1 (constitutive isoform of HSP40) (human (endogenous in HEK293T)) (UniProt P31689)

| Substance | binding [1] | also measured |
| --- | --- | --- |
| CHIP (C-terminal of HSP70-interacting protein) (from UniProt Q9UNE7-1 1-303) | binds | – |
| DjA1 (constitutive isoform of HSP40) (from UniProt P31689 1-397) | binds | – |
| HA-KCNQ4 (voltage-gated potassium channel KCNQ4 with a modified HA epitope in the first extracellular loop) (from UniProt P56696-1 1-695) | – | binding [2]: binds; binding [3]: binds; binding [4]: binds; binding [5]: binds |
| HOP (heat-shock protein organizing protein) (from UniProt P31948-1 1-543) | binds | – |
| HSC70 (heat-shock 70kD cognate protein, constitutive isoform of HSP70) (from UniProt P11142 1-646) | binds | – |
| HSP90α (inducible isoform of HSP90) (from UniProt P07900-1 1-732) | binds | – |
| HSP90β (constitutive isoform of HSP90) (from UniProt P08238 1-724) | binds | – |
